Data source: PubChem BioAssay AID1508597 (Cure First, 2020)
Shown is an unselected part of the about 2,100 reagents, under one of the conditions tested. 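Calls flag viability under 80% in either arm, not effects specific to rucaparib; the reference for percent is not stated.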 A number with no mark means an inactive call. Some reagents were tested in more than one well and are listed for each. Not stated in the record: the 100% reference.

Screen: 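Genes whose silencing sensitises or protects ovarian cancer cells against rucaparib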 (primary screen)
Cell system: human ovarian carcinoma lines grown from tumours: OCI-P5x (papillary serous) and OCI-C5x (clear cell)
Knock-down reagent: siRNA pool against human genes, 1.25 pmol siRNA per well
Timing: 72 h or 96 h, depending on the cell culture
Conditions: rucaparib 20 µM (about IC30) or vehicle, present until read-out
Rucaparib or vehicle: Rucaparib
Cell line: OCI-P5x (serous)
Read-out: 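Luminescent ATP-based viability assay read 72 or 96 h after transfection, depending on culture, given as normalised percent viability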
Scale: viability, normalised: higher = more viable cells remaining
Rule for the call: 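Active when normalised viability falls below 80 percent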
Calls: active = viability under 80%; inactive = viability 80% or more

gene knocked down	technical replicate	viability, normalised (%)
PET117	1	47.8 (active)
PET117	2	47.2 (active)
PET117	3	52.1 (active)
RPA1	1	48.7 (active)
RPA1	1	89.1
RPA1	2	57.4 (active)
RPA1	2	56.7 (active)
RPA1	3	68.7 (active)
RPA1	3	56.2 (active)
LYN	1	71.3 (active)
LYN	2	96
LYN	3	99.3
ZC3HAV1	1	96.7
ZC3HAV1	2	74 (active)
ZC3HAV1	3	78.3 (active)
TADA2A	1	89.9
TADA2A	2	102
TADA2A	3	93.4
PARP4	1	39.7 (active)
PARP4	1	90.1
PARP4	2	49.3 (active)
PARP4	2	96.4
PARP4	3	53.1 (active)
PARP4	3	86

Entries above whose target name begins with Z or z:
gene knocked down	technical replicate	viability, normalised (%)
ZC3HAV1	1	96.7
ZC3HAV1	2	74 (active)
ZC3HAV1	3	78.3 (active)
